# Literature values as cited in patent US10369131B2, “Ultrapure tetrahydrocannabinol-11-oic acids” (Corbus Pharmaceuticals, Inc., priority 2013, dated 2019).
# By UniProt entry, the sequences of proteins in these tests, tags left out.
# UniProt P21554, whole entry: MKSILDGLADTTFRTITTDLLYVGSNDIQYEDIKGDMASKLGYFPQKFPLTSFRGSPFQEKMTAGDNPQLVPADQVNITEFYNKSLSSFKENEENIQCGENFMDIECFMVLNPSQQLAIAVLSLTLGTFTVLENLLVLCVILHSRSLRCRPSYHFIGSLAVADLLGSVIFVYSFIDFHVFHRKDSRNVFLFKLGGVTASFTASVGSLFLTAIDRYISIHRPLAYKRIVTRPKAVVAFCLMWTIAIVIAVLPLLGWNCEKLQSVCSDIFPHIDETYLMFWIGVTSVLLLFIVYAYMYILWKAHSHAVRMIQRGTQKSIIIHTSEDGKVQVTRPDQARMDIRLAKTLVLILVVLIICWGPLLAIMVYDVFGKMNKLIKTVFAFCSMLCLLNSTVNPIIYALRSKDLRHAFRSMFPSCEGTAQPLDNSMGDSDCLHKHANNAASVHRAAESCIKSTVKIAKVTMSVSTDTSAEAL
# Molecular target: CB1 receptor (Homo sapiens, UniProt P21554)
# Conditions: earlier ajulemic acid synthesis products, literature; cited from earlier work
compound,measurement,value
CCCCCCC(C)(C)c1cc(O)c2c(c1)OC(C)(C)[C@@H]1CC=C(C(=O)O)C[C@@H]21,ratio of CB1/CB2 binding,0.10

# The match of structure and compound is tentative.
